Reference: the supplement of paper PMC4683952
The list shows a part of the results. Rule as the data show it: active = 2 or more and inactive = the rest. Most values lie within the scatter of the assay; repeated measurements hardly agree.

System: Lgr5 (MarsCy1-Lgr5-EGFP, U2OS)
Test: cell-surface Lgr5 expression (SCi1 fluorescence, background-subtracted) relative to WT DMSO (fold of DMSO control); higher = more Lgr5 at the plasma membrane
Conditions: U2OS MarsCy1-Lgr5-EGFP stable; treatment time: overnight; library: ActiProbe-5K (TimTec); 25 µM

SMILES | cell-surface Lgr5 expression
COc1ccc2ccccc2c1/C=N\O | inactive: 0.751
CCc1sc(C(C2C(=O)CC(C)(C)CC2=O)C2C(=O)CC(C)(C)CC2=O)cc1[N+](=O)[O-] | active: 2.75
O=S(=O)(c1cccc2c(S(=O)(=O)N3CCOC(COc4ccccc4)C3)cccc12)N1CCOC(COc2ccccc2)C1 (stereo not drawn) | inactive: 1.08
O=C1CSC(=O)N1CC(O)Cn1c2ccc(Br)cc2c2cc(Br)ccc21 (stereo not drawn) | inactive: 0.999
Nc1n[nH]c(SCC(=O)Nc2nonc2-n2cccc2)n1 | inactive: 0.962
CC1=NN(C(=N)N)C(=O)C1 | inactive: 1.13
CCCc1nnc(N)s1 | inactive: 1.17
CS(=O)(=O)c1nc(-c2ccc(Br)cc2)n[nH]1 | inactive: 1.37
CCCCOC(=O)Nc1sc2c(c1C(=O)OC)CCC2 | inactive: 1.11
Cn1c(COc2ccc3ccccc3c2)nc2ccccc21 | inactive: 1.17
COC(=O)c1sc(C(=O)OC)c(Cl)c1Cl | inactive: 1.02
Cc1nc(S(=O)(=O)n2ccnc2)c(C#N)c(C)c1Cl | inactive: 1.13
Cn1cccc1/C=C(/C#N)C(N)=S | inactive: 0.863
O=[N+]([O-])c1cnc(N2CCCCC2)nc1 | inactive: 1.16
CCn1ncc(NS(=O)(=O)c2cnn(C)c2)c1C(=O)Nc1cnn(C)c1C | inactive: 1.06
COc1ccc(OC)c(C2=Nn3c(nnc3-c3ccccc3OC)SC2)c1 | inactive: 0.909
CCCC1CC2(O)CC(C#N)(C(=O)N2)C1(C#N)C#N (stereo not drawn) | inactive: 1.27
c1ccc(-c2nc(-c3ccncc3)cc(-c3ccccn3)n2)cc1 | inactive: 1.13
CC1=C(C#N)C(c2ccsc2)c2nc(N)oc2N1 (stereo not drawn) | inactive: 1.08
NC(=O)Cn1cnc2sc3c(c2c1=O)CCC3 | inactive: 1.09
Nc1cc(-c2cccs2)n[nH]1 | inactive: 1.36
c1(c(sc2c1CCCC2)NC(C1C(C)(C)C1\C=C(\Cl)Cl)=O)C(OC(C)C)=O (stereo not drawn) | inactive: 1.19

SMILES | cell-surface Lgr5 expression
O=C1Oc2ccccc2C2Oc3c(c(=O)oc4ccccc34)C3(C(=O)Nc4ccccc43)C12 (stereo not drawn) | inactive: 1.15
COC(=O)c1c(Br)cnn1C | inactive: 1.22
O=C1/C(=C\c2ccsc2)N2CCC1CC2 | inactive: 0.851
O=S(=O)([O-])c1ccc(-c2nnc(-c3ccccn3)nc2-c2ccc(S(=O)(=O)[O-])o2)o1.[Na+].[Na+] | inactive: 1.13
O=S(=O)(c1cccs1)c1cccs1 | inactive: 1.34
C1=Nn2cnnc2SC(c2ccccc2)=C1 | inactive: 0.585
O=C(N1CCCCCC1)N1CCOCC1 | inactive: 1.04
C=C1Cn2c(nnc2-c2ccc(Cl)cc2)S1 | inactive: 1.08
COc1ccc2c(c1)NC(C)(C)C=C2C | inactive: 1.4
COc1cc(C2Oc3ccccc3C3CC(c4ccccc4)=NN32)cc(OC)c1OC (stereo not drawn) | inactive: 0.767
c1coc(C2Nc3ccccc3C3OCCC23)c1 (stereo not drawn) | inactive: 1.18
S=C(Nc1ccccc1)N1CCc2ccccc21 | inactive: 0.977
C=CCNc1nc2ccccn2c(=O)c1/C=C1\SC(=S)N(CC2CCCO2)C1=O (stereo not drawn) | inactive: 1.45
O=C(/N=c1/nc2ccccn2s1)c1ccc(F)cc1 | inactive: 0.893
CCN(CC)C(=O)CN1C(=O)C(=O)c2cc(Br)ccc21 | inactive: 1.23
O=C(O)c1cc[n+](CCS(=O)(=O)[O-])cc1 | inactive: 1.13
CCOc1cccc2c1NC(C)(C)c1ssc(=S)c1-2 | inactive: 1.19
C=CCn1cc(Cl)cc/c1=N\C=C(C#N)C#N | inactive: 0.942
c1ccc(CSc2nc3ccccc3s2)nc1 | inactive: 1.05
CC1CNC(C)(C)C(=O)C1 (stereo not drawn) | inactive: 1.11
N#CC1=C(N)OC2=C(C(=O)CCC2)C1c1ccco1 (stereo not drawn) | inactive: 1.13
Fc1ccc(-n2cccc2)cc1Cl | inactive: 0.985

A draw from above in order of molar mass, ascending:
SMILES | cell-surface Lgr5 expression
O=C(O)c1cc[n+](CCS(=O)(=O)[O-])cc1 | inactive: 1.13
S=C(Nc1ccccc1)N1CCc2ccccc21 | inactive: 0.977
c1ccc(CSc2nc3ccccc3s2)nc1 | inactive: 1.05
CCOc1cccc2c1NC(C)(C)c1ssc(=S)c1-2 | inactive: 1.19

Additional results:

SMILES | cell-surface Lgr5 expression
Brc1ncnc2[nH]cnc12 | inactive: 1.32
O=C1CC(n2nnc3ccccc32)C2COC1O2 (stereo not drawn) | inactive: 1.23
Oc1ccc2ccccc2c1/N=N\c1ccccc1 | inactive: 1.22
CC(CC(=O)O)n1ccnc1 (stereo not drawn) | inactive: 1.39
O=C(O)[C@@H]1CSC(c2coc3ccccc3c2=O)N1 (stereo partly drawn) | inactive: 1.44
C#CCOC(C)n1cccc1-c1cccs1 (stereo not drawn) | inactive: 1.06
OC1(C#CCN2CCCC2)CCCCC1 | inactive: 1.38
N#Cc1cc(C#N)c(SC2C=CCCC2)nc1N (stereo not drawn) | inactive: 0.533
Sc1nnc(-c2ccccc2)n1/N=C\c1cccc2ccccc12 | inactive: 0.981
O=[N+]([O-])c1cc(Sc2ccc(Cl)cc2)c2c(C3OCCO3)noc2c1 | inactive: 1.18
Sc1nc2cccc(Cl)c2o1 | inactive: 1.51
C=CCn1c(NCCN(CC)CC)nc2c1c(=O)[nH]c(=O)n2C | inactive: 1.24
O=[N+]([O-])c1cnn(CSc2nc3ncccn3n2)c1 | inactive: 0.946
CC1Cn2c(nnc2C23CC4CC(CC(C4)C2)C3)S1 (stereo not drawn) | inactive: 1.2
O=C(CSCCO)Nc1nccs1 | inactive: 1.14
Clc1ccc(-c2nnc(NC3=NCCC3)o2)cc1 | inactive: 0.913
O=C1NC(=S)S/C1=C\c1ccco1 | inactive: 1.2
COC(=O)Nc1nccs1 | inactive: 1.01
Cc1cc(N2CCN(C3=NCC(C)(C)S3)CC2)n2c(nc3ccccc32)c1C#N | inactive: 0.867
COc1cc(OC)c(-c2nn3c(C4CCCCC4)nnc3s2)cc1OC | inactive: 1.65
COc1ccc2c(c1)C1OCCC1C(c1ccncc1)N2 (stereo not drawn) | inactive: 1.52
O=C(NC1CC1)c1ccc(=O)[nH]c1 | inactive: 0.895

SMILES | cell-surface Lgr5 expression
COc1ccc(OC)c(C2=Nn3c(nnc3-c3ccccn3)SC2)c1 | inactive: 1.01
CC(=O)SC[C@@H](C)C(=O)N1CCC[C@H]1C(=O)O | inactive: 1.27
N#Cc1cnc2c(C(N)=O)cnn2c1N | inactive: 0.99
O=S(=O)(Nc1ccc(S(=O)(=O)Nc2nccs2)cc1)c1ccc2c(c1)OCCO2 | inactive: 1.62
CCOc1ccc2c(c1)-c1c(sn(-c3ccc(OC)cc3)c1=S)C(C)(C)N2 | inactive: 0.684
COc1cc(Cn2ccnc2)c(OC)cc1Cn1ccnc1 | inactive: 1.14
O=C1C2C(C(=O)N1c1ccc([N+](=O)[O-])cc1)C1C=CC2C12CC2 (stereo not drawn) | inactive: 1.33
CCCCC(CC)C(=O)NCC1CCCO1 (stereo not drawn) | inactive: 1.15
COc1ccc(C2=NN=C3COc4ccc(Cl)cc4N3C2)cc1 | inactive: 1.32
O=[N+]([O-])c1ccc(/N=C\c2cc(Br)cc(Br)c2O)c(O)c1 | inactive: 0.64
Cc1csc(NC(=O)NC(C)(C)C)n1 | inactive: 1.31
O=c1c2c3c(sc2nc2n1CCC2)CCCC3 | inactive: 1.37
CCSc1ncc(C#N)c(N)n1 | inactive: 1.13
CCCC(C)NS(=O)(=O)c1c(C)cc(C)cc1C (stereo not drawn) | inactive: 1.04
O=c1nc2ccccn2c2ccc([N+](=O)[O-])cc12 | inactive: 0.81
CN1C(=O)C(=O)c2cc(Br)ccc21 | inactive: 1.13
Clc1cc(/N=C\c2ccc(Br)s2)ccc1Br | inactive: 1.08
O=C1/C(=C\N2CCN(c3ccc(F)cc3)CC2)SC(=S)N1c1ccc(F)cc1 | inactive: 1.54
COC(=O)c1c(O)cc(=O)[nH]c1N | inactive: 1.07
O=C1OC2(OC=C(c3ccccc3)C2=O)c2ccccc21 (stereo not drawn) | inactive: 1.36
S=c1n(Cn2nnn(-c3ccccc3)c2=S)nnn1-c1ccccc1 | inactive: 1.6
O=C(O)CSCc1ccco1 | inactive: 1.33

SMILES | cell-surface Lgr5 expression
CC(C)(C)OC(=O)N1CCCC(CN)C1 (stereo not drawn) | inactive: 1.11
Clc1c(-c2nnc(-c3cccs3)o2)sc2ccccc12 | inactive: 0.913
O=C(O)c1ccc(Br)s1 | inactive: 1.01
c1ccc2[nH]c(CCSc3nc4ccccc4[nH]3)nc2c1 | inactive: 1.27
CN(C)/C=C(/C=O)n1cc([N+](=O)[O-])cn1 | inactive: 1.16
CCc1ccc(C(C2C(=O)CC(C)(C)CC2=O)C2C(=O)CC(C)(C)CC2=O)s1 | inactive: 1.02
O=S(=O)(c1ccc2oc3ccccc3c2c1)N1CCCc2ccccc21 | inactive: 0.759
COC(=O)c1c(N2C(=N)SCC2=O)sc2c1CCCC2 | inactive: 0.975
Cc1c2cc(O)c(=O)cc-2oc2cc(O)c(O)cc12 | inactive: 0.823
CN(C)c1cc(N2CCOCC2)nc(C#N)n1 | inactive: 1.16
O.O=S(=O)([O-])c1cc(O)c(O)c(S(=O)(=O)[O-])c1.[Na+].[Na+] | inactive: 1.06
O=[N+]([O-])[C-]([N+](=O)[O-])[S+](c1ccccc1)c1ccccc1 | inactive: 1.05
Brc1ccc(-c2nc(-c3cccnc3)no2)cc1 | inactive: 0.881
Clc1n[nH]c2ccccc12 | inactive: 0.881
C=CCOc1nc(N2CCCCC2)nc(N2CCOCC2)n1 | inactive: 1.04
CCCOC(=O)CCNc1n[nH]c(=O)[nH]c1=O | inactive: 1.27
O=C(O)COCCC12CC3CC(CC(C3)C1)C2 | inactive: 1.28
O=C(CSc1nc2ccccc2s1)C1CC1 | inactive: 0.854
O=C(OCCCl)Oc1c(Cl)cc2oc(=O)sc2c1Br | inactive: 1.32
Cc1cnc2c(ccc3c(C)c(C)cnc32)c1C | inactive: 0.402
